In US20060222709A1 (AGI Therapeutics Research Ltd., priority 2005, published 2006):
At least one structure is not confirmed: it was looked up by name or label, or the drawing left a doubt.

Tested on: patients with functional constipation
Test: Randomized, dose escalation, placebo controlled clinical study
Format: in vivo, human
Details: daily diaries, dose escalation phase

Structure (SMILES): CN(C)C(=N)N=C(N)N [metformin, dimethylbiguanide]
- patient's global impression: answer 'yes' to "do you feel better now after treatment", share of the time: at least 50%
